We go through 1 molecule from patent publication US20230242658A1.

The target of the experiment is histidine-labeled cynomolgus monkey 4-1BB protein (cynomolgus monkey). The experiment can be described thus: BLI Octet RED96.

No constants are given. Whether binding was seen depends on the method and setting. Binding can be weak; no strength is given.

B1: PR001838 (antibody, human IgG1, V domains shown)
VH: EVQLLESGGGLVQPGGSLRLSCAASGFTFSNYAMSWFRQPPETGLKWVSSIDGSGGDTYYADSVKGRFTISRDNSKNTLYLQMNSLRAEDTAVYYCAKEGSHGTDDSHYDVDVWGQGTTVTVSS
As to B1, the binding entry is reported as “binds”.
